The values that follow come from paper PMC11923636, “Synthesis, Pharmacological Evaluation, and Molecular Modeling of Phthalimide Derivatives as Monoamine Oxidase and Cholinesterase Dual Inhibitors” (ACS Omega, 2025).

Usually Papp stands for the rate of passage across a membrane or cell layer, normalised by area and donor concentration. Read a low Papp as slow passage.

This data set is described as follows: in vitro. The conditions noted are these: PAMPA. On the procedure:
A fundamental requirement for the effectiveness of anti-AD drugs is their capability to traverse the BBB (blood–brain barrier). […]
Briefly, synthesized compounds were first dissolved in DMSO (10 mM) that was further diluted by the addition of phosphate buffer ([…]) having a pH of 7.4. PBL dissolved in dodecane was used for coating the membranes of the donor plates. Then, the test compound (0.2 mL) was added to the plate, followed by PBS (0.2 mL; pH = 7.4) to the acceptor plate, which was further placed under the donor plate in order to form a “sandwich”. […] A UV plate reader was employed for the measurements of the drug concentration in donor, acceptor, and reference wells. The permeability (Pe) of the compounds was measured by using the following formula. [drawing 2]

Regarding `COc1cc2c(cc1OC)C(=O)C(CC1CCN(Cc3ccccc3)CC1)C2` (centres unmarked) [donepezil], the “prediction of CNS penetration” value is reported as “CNS+ (key: “CNS+” (prediction of high BBB permeation); Pe (10^–6 cm/s) > 4.39; “CNS–” (prediction of low BBB permeation); Pe (10^–6 cm/s) < 1)”. This compound also registered a Papp (pH 7.4) of 16.7 ± 1.01 ×10⁻⁶ cm/s.
